Measured values: paper PMC12040169 (PLOS Biology, 2025)
Some of the results follow.

Each molecule was assayed on T1, CTL2-GFP (C. trachomatis L2/434/Bu, GFP-expressing). Conditions: bulk GFP, single well; 28.5 h, 10 µM; inhibitor.
T1 construct: L2/434/Bu, GFP-expressing
Set-up: species or system HeLa; Intracellular C. trachomatis growth in HeLa cells, bulk GFP fluorescence relative to DMSO
`Cc1ccccc1NC(=O)Cc1nc(CN2CCC3(CCOC3)C2)cs1` (stereo not shown) [CBK304164] was tested, and the “% of control remaining” value was 140.561%. With `COc1ncccc1NC(=O)CSCC#N` [CBK306314] the “% of control remaining” value was 125.619%. `CCNC(=O)O[C@@H]1CO[C@H]2[C@@H]1OC[C@@H]2NC(=O)Nc1ccc(C(C)=O)cc1` [CBK289473] was tested, and the “% of control remaining” value was 104.859%. `CC(=O)N(C)c1ncc(Br)cc1C(=O)NCCc1ccccc1` [CBK076543] was tested, and the “% of control remaining” value was 121.868%. `COC(=O)[C@H]1CCc2ccccc2N1C(=O)C1CCC1` [CBK285478] was tested, and the “% of control remaining” value was 83.6837%. For `CCC1CCCCN1C(=O)Cn1cnc2c(Cl)cc(Cl)cc2c1=O` (stereo not shown) [CBK305833], the “% of control remaining” value was 110.212%. `O=C(O)CCC(NC(=O)c1ccc(Cl)cc1)C(=O)O` (stereo not shown) [CBK263597] was tested, and the “% of control remaining” value was 127.437%. In the case of `CC(Sc1nc(N(C)C)nc(N2CCOCC2)n1)C(=O)Nc1ccc(Cl)c(Cl)c1` (stereo not shown) [CBK269229], the “% of control remaining” value is reported as 103.435%. For `CCOCCCNC(=O)C1CCN(c2cccc(F)c2C#N)CC1` [CBK306341], the “% of control remaining” value was 73.8478%. For `COc1cc(OC)cc(C(=O)N2CCC3(CC2)CC(=O)c2c(OC)cc(OC)cc2O3)c1` [CBK164233], the “% of control remaining” value was 100%. For `CC(NC(=O)CCCC(=O)c1cccs1)c1cccc2ccccc12` (stereo not shown) [CBK297748], the “% of control remaining” value was 106.674%. For `CC(=O)Nc1ccc(S(=O)(=O)Nc2ccc(-c3nc4cc(C(=O)c5ccccc5)ccc4[nH]3)cc2)cc1` [CBK267819], the “% of control remaining” value was 108.634%. In the case of `Cc1cccc(OCCn2c(CCNC=O)nc3ccccc32)c1C` [CBK269539], the “% of control remaining” value is reported as 102.064%. `Cc1ccccc1-n1nc(C)c(CN(C)CC2CCN(C)C2)c1C` (stereo not shown) [CBK283035] was tested, and the “% of control remaining” value was 135.432%. `OCCC1CCCCN1c1nccnc1-c1ccsc1` (stereo not shown) [CBK037358] was tested, and the “% of control remaining” value was 125.742%. `Cc1cnc(CNC(=O)c2ccc3nc[nH]c3c2)cn1` [CBK153318] was tested, and the “% of control remaining” value was 166.976%. In the case of `Cc1cc(C(=O)NCc2ccccc2)n[nH]1` [CBK200198], the “% of control remaining” value is reported as 161.445%. With `NS(=O)(=O)c1ccc(CCNc2ncnc3c2c(-c2ccccc2)cn3-c2ccc(F)cc2)cc1` [CBK266478] the “% of control remaining” value was 84.2376%. `CCNc1cncc(-c2ccc(N)cc2)n1` [CBK065658] was tested, and the “% of control remaining” value was 122.026%. In the case of `O=C(C[C@@H]1CCNC[C@@H]1Cc1cc(-c2ccc(F)cc2)on1)Nc1ccccc1` [CBK288801], the “% of control remaining” value is reported as 120.971%. With `Cc1cc(NC(=O)Cn2nc(C(F)(F)F)c(Cl)c2C)no1` [CBK018709] the “% of control remaining” value was 116.386%. `CCCC1c2cccn2CCN1S(=O)(=O)c1ccc2[nH]c(=O)[nH]c(=O)c2c1` (stereo not shown) [CBK286388] was tested, and the “% of control remaining” value was 105.587%. With `Cc1cc(C(F)(F)F)c2c(NC/C=C/c3ccco3)n[nH]c2n1` [CBK283651] the “% of control remaining” value was 95.3874%. With `O=C1CN(S(=O)(=O)c2ccc(F)cc2Cl)CCN1` [CBK051081] the “% of control remaining” value was 131.011%. `CN(C)CCN(C)Cc1ccccc1O` [CBK261875] was tested, and the “% of control remaining” value was 100%. With `Cc1cc(Cl)ccc1OCC(=O)Nc1nnc[nH]1` [CBK287940] the “% of control remaining” value was 148.134%. With `CC1CCN(C(=O)Cn2ncn3c(cc4ccsc43)c2=O)CC1` [CBK284190] the “% of control remaining” value was 113.687%. `CCN1CCN(C(=O)CN(CCc2ccccc2)S(C)(=O)=O)CC1` [CBK266666] was tested, and the “% of control remaining” value was 104.388%. `N#Cc1cccc(C(=O)NCC2(N3CCOCC3)CCSC2)c1` (stereo not shown) [CBK306344] was tested, and the “% of control remaining” value was 110.71%. For `COc1ccccc1-c1nnc(NC(=O)Cc2cccs2)s1` [CBK287361], the “% of control remaining” value was 140.087%. In the case of `O=C(O)CC(NC=C1C(=O)CCCC1=O)C(=O)O` (stereo not shown) [CBK261997], the “% of control remaining” value is reported as 100%. In the case of `COCCc1nc(Cc2ccc(OC)cc2)nn1CC1COCCO1` (stereo not shown) [CBK307521], the “% of control remaining” value is reported as 117.91%. `Cc1ccccc1CN(C)C(C)C(=O)Nc1ccc(S(N)(=O)=O)cc1` (stereo not shown) [CBK304589] was tested, and the “% of control remaining” value was 119.065%. `O=C(c1ccncc1)c1ccc(N2CCN(C3CC(=O)N(Cc4cccs4)C3=O)CC2)cc1` (stereo not shown) [CBK269074] was tested, and the “% of control remaining” value was 123.051%. In the case of `COc1ccccc1OCC(=O)N1CCNC1=O` [CBK288201], the “% of control remaining” value is reported as 158.675%. In the case of `COc1ccccc1C/C(N)=N/OC(=O)COc1ccc2ccccc2c1` [CBK263730], the “% of control remaining” value is reported as 124.333%. With `CC[C@H]1CN(C(=O)Nc2cccc(C(F)(F)F)c2)CC[C@H]1CC(=O)O` [CBK288776] the “% of control remaining” value was 130.728%. With `Brc1cccc(-c2cn3ccnc3c(NC3CCOCC3)n2)c1` [CBK066291] the “% of control remaining” value was 115.063%. In the case of `O=c1[nH]c(=O)n([C@@H]2O[C@H](CO)[C@H](O)C2O)cc1I` (stereo partly shown) [CBK201304], the “% of control remaining” value is reported as 172.706%. In the case of `O=S(=O)(c1cc(Cl)sc1Cl)N1CCN(Cc2ccc3c(c2)OCO3)CC1` [CBK074743], the “% of control remaining” value is reported as 129.098%.
